23 molecules from article PMC10742089 can be followed below.

Amino acid sequences for entries named in this document (tags omitted). Residues count along the entry.
UniProt Q07021, residues 74-282: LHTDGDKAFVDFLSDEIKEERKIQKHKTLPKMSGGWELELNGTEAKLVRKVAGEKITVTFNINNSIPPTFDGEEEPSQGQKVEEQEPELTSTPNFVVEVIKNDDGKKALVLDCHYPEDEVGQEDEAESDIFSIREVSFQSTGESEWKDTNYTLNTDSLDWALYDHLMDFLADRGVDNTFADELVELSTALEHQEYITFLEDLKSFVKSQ
UniProt Q5SSJ5: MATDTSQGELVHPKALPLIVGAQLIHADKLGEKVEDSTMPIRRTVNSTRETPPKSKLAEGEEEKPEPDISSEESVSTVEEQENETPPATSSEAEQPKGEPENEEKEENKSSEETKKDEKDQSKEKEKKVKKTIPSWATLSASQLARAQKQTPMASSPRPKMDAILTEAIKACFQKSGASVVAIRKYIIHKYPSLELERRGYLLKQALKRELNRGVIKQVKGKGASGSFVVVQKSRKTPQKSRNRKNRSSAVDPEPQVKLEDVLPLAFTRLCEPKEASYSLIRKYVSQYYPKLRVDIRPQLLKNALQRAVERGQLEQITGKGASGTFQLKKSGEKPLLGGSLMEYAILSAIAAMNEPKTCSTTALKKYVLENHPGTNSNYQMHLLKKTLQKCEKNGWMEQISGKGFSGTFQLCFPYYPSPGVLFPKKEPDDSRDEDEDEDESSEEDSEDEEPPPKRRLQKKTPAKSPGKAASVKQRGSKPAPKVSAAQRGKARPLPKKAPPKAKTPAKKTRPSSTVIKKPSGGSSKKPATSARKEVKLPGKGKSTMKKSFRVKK
UniProt P51665: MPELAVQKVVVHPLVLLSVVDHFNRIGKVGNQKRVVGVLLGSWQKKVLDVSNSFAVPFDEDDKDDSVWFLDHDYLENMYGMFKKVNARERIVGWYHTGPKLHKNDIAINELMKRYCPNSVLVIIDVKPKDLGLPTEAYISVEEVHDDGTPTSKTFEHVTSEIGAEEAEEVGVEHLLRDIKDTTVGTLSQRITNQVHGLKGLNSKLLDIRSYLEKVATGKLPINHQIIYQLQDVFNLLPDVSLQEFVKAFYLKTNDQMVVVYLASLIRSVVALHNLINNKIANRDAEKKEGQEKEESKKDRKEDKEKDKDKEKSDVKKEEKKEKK
UniProt Q9UNM6: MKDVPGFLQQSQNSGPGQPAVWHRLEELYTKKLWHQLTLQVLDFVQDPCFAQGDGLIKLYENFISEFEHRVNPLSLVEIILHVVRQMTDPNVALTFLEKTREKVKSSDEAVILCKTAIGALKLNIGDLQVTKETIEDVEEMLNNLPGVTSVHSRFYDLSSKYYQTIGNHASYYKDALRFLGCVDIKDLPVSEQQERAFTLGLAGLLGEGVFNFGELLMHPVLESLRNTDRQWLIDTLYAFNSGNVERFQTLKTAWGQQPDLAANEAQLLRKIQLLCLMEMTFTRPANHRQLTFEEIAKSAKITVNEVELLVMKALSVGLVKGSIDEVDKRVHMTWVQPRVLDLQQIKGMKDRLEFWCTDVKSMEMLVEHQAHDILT
UniProt P49750: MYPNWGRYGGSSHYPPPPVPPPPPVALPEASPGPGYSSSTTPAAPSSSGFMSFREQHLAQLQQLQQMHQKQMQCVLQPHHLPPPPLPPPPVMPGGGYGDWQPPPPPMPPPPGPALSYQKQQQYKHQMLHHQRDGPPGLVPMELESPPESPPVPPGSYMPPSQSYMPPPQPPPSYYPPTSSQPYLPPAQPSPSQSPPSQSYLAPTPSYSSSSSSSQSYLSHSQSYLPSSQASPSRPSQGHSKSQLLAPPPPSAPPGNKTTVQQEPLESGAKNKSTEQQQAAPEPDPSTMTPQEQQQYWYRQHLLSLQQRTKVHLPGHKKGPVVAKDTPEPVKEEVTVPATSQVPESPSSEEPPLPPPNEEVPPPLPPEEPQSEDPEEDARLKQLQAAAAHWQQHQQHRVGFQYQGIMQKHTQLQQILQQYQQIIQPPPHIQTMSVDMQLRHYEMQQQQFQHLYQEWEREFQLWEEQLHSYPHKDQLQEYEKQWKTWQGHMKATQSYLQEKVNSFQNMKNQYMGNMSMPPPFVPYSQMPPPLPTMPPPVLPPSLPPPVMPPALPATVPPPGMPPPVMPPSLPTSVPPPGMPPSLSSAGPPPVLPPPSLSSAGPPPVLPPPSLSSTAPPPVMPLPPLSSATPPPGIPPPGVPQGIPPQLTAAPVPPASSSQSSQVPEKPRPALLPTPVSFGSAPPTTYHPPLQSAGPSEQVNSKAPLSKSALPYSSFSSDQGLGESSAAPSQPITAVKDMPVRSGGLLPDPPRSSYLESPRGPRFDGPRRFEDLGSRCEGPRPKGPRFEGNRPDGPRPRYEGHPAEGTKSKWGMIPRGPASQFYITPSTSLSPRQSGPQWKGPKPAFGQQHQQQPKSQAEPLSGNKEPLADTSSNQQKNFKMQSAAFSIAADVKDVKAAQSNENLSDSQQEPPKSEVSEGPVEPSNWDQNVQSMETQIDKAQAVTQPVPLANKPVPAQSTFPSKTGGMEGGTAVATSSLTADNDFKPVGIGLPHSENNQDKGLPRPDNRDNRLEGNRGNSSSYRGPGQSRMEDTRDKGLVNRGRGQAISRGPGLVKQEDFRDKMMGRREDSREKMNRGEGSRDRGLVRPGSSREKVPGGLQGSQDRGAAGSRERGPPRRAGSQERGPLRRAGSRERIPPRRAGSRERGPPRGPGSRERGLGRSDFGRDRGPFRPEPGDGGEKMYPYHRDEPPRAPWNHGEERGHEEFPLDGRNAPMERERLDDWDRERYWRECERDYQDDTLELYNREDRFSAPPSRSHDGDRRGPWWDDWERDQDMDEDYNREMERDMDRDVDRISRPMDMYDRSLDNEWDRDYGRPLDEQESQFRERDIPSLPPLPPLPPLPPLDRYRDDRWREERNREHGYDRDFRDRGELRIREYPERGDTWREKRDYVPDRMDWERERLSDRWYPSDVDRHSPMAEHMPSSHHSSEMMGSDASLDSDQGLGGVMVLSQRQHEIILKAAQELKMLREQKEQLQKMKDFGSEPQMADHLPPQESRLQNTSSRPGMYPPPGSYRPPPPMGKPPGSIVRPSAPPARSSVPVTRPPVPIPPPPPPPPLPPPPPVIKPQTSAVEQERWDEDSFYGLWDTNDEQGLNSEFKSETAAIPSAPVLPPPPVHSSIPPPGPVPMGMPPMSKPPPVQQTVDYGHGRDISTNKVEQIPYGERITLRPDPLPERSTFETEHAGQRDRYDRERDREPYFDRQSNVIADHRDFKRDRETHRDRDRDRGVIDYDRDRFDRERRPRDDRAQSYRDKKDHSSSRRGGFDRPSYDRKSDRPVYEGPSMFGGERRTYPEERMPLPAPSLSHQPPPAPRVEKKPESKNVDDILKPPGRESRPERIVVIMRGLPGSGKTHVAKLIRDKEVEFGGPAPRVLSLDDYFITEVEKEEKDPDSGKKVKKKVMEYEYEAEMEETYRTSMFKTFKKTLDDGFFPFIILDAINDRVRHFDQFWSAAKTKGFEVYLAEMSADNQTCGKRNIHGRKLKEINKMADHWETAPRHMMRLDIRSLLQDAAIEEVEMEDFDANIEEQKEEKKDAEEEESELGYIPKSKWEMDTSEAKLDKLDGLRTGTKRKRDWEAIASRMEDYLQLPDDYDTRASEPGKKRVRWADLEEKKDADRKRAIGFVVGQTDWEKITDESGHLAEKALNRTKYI

This experiment has as its target mEGFP-iso6 (FMRP nuclear isoform iso6 fused to GFP) (human) (UniProt Q06787). The experiment can be described thus: affinity purification with mass spectrometry; stringent conditions: GFP-Trap on whole-cell lysate of U2OS stably expressing GFP-iso6 or GFP-iso1, half the number of cells of the first screen, 6 GFP-free U2OS controls, <=1% FDR; cells mock-treated or treated with aphidicolin (APH) for 24 h.

These are yes or no findings as the source states them, for the method shown. Binding seen in cells or lysates may run through a third protein. A yes stands for co-enrichment or nearness to the bait. Other partners may have been found.

Turning to APP (from UniProt P05067 18-770), the binding entry is reported as “binds”.
The value for C1QBP (from UniProt Q07021 74-282) was “binds”; that for HP1BP3 (from UniProt Q5SSJ5 1-553) was “binds”.
For ITM2B (from UniProt Q9Y287 1-266), the binding result is recorded as “binds”.
The value for LRP1 (from UniProt Q07954 20-4544) was “binds”; that for PCF11 (from UniProt O94913 1-1555) was “binds”.
As for PI4KA (from UniProt P42356 1-2102), the entry is “binds”; as for PSMC4 (from UniProt P43686 1-418), “binds”.
As for PSMC6 (from UniProt P62333 1-389), the entry is “binds”; as for PSMD3 (from UniProt O43242 1-534), “binds”.
Turning to PSMD4 (from UniProt P55036 1-377), the binding result is listed as “binds”.
In the case of PSMD7 (from UniProt P51665 1-324), the binding entry was “binds”.
The value for PSMD13 (from UniProt Q9UNM6 1-376) was “binds”.
The value for PSMD14 (from UniProt O00487 1-310) was “binds”.
As for RFC2 (from UniProt P35250 1-354), the entry is “binds”.
YLPM1 (from UniProt P49750 1-2146): the binding entry was “binds”.

B1: NIP7 (protein, UniProt Q9Y221 1-180)
chain: MRPLTEEETRVMFEKIAKYIGENLQLLVDRPDGTYCFRLHNDRVYYVSEKIMKLAANISGDKLVSLGTCFGKFTKTHKFRLHVTALDYLAPYAKYKVWIKPGAEQSFLYGNHVLKSGLGRITENTSQYQGVVVYSMADIPLGFGVAAKSTQDCRKVDPMAIVVFHQADIGEYVRHEETLT
For B1, the binding entry is “binds”.

B2: KIF22 (protein, UniProt Q14807 1-665)
chain: MAAGGSTQQRRREMAAASAAAISGAGRCRLSKIGATRRPPPARVRVAVRLRPFVDGTAGASDPPCVRGMDSCSLEIANWRNHQETLKYQFDAFYGERSTQQDIYAGSVQPILRHLLEGQNASVLAYGPTGAGKTHTMLGSPEQPGVIPRALMDLLQLTREEGAEGRPWALSVTMSYLEIYQEKVLDLLDPASGDLVIREDCRGNILIPGLSQKPISSFADFERHFLPASRNRTVGATRLNQRSSRSHAVLLVKVDQRERLAPFRQREGKLYLIDLAGSEDNRRTGNKGLRLKESGAINTSLFVLGKVVDALNQGLPRVPYRDSKLTRLLQDSLGGSAHSILIANIAPERRFYLDTVSALNFAARSKEVINRPFTNESLQPHALGPVKLSQKELLGPPEAKRARGPEEEEIGSPEPMAAPASASQKLSPLQKLSSMDPAMLERLLSLDRLLASQGSQGAPLLSTPKRERMVLMKTVEEKDLEIERLKTKQKELEAKMLAQKAEEKENHCPTMLRPLSHRTVTGAKPLKKAVVMPLQLIQEQAASPNAEIHILKNKGRKRKLESLDALEPEEKAEDCWELQISPELLAHGRQKILDLLNEGSARDLRSLQRIGPKKAQLIVGWRELHGPFSQVEDLERVEGITGKQMESFLKANILGLAAGQRCGAS
Take B2: the binding result is “binds”.

B3: PAK1IP1 (protein, UniProt Q9NWT1 1-392)
chain: MELVAGCYEQVLFGFAVHPEPEACGDHEQWTLVADFTHHAHTASLSAVAVNSRFVVTGSKDETIHIYDMKKKIEHGALVHHSGTITCLKFYGNRHLISGAEDGLICIWDAKKWECLKSIKAHKGQVTFLSIHPSGKLALSVGTDKTLRTWNLVEGRSAFIKNIKQNAHIVEWSPRGEQYVVIIQNKIDIYQLDTASISGTITNEKRISSVKFLSESVLAVAGDEEVIRFFDCDSLVCLCEFKAHENRVKDMFSFEIPEHHVIVSASSDGFIKMWKLKQDKKVPPSLLCEINTNARLTCLGVWLDKVADMKESLPPAAEPSPVSKEQSKIGKKEPGDTVHKEEKRSKPNTKKRGLTGDSKKATKESGLISTKKRKMVEMLEKKRKKKKIKTMQ
In the case of B3, the binding entry is “binds”.

B4: ADNP (protein, UniProt Q9H2P0 1-1102)
chain: MFQLPVNNLGSLRKARKTVKKILSDIGLEYCKEHIEDFKQFEPNDFYLKNTTWEDVGLWDPSLTKNQDYRTKPFCCSACPFSSKFFSAYKSHFRNVHSEDFENRILLNCPYCTFNADKKTLETHIKIFHAPNASAPSSSLSTFKDKNKNDGLKPKQADSVEQAVYYCKKCTYRDPLYEIVRKHIYREHFQHVAAPYIAKAGEKSLNGAVPLGSNAREESSIHCKRCLFMPKSYEALVQHVIEDHERIGYQVTAMIGHTNVVVPRSKPLMLIAPKPQDKKSMGLPPRIGSLASGNVRSLPSQQMVNRLSIPKPNLNSTGVNMMSSVHLQQNNYGVKSVGQGYSVGQSMRLGLGGNAPVSIPQQSQSVKQLLPSGNGRSYGLGSEQRSQAPARYSLQSANASSLSSGQLKSPSLSQSQASRVLGQSSSKPAAAATGPPPGNTSSTQKWKICTICNELFPENVYSVHFEKEHKAEKVPAVANYIMKIHNFTSKCLYCNRYLPTDTLLNHMLIHGLSCPYCRSTFNDVEKMAAHMRMVHIDEEMGPKTDSTLSFDLTLQQGSHTNIHLLVTTYNLRDAPAESVAYHAQNNPPVPPKPQPKVQEKADIPVKSSPQAAVPYKKDVGKTLCPLCFSILKGPISDALAHHLRERHQVIQTVHPVEKKLTYKCIHCLGVYTSNMTASTITLHLVHCRGVGKTQNGQDKTNAPSRLNQSPSLAPVKRTYEQMEFPLLKKRKLDDDSDSPSFFEEKPEEPVVLALDPKGHEDDSYEARKSFLTKYFNKQPYPTRREIEKLAASLWLWKSDIASHFSNKRKKCVRDCEKYKPGVLLGFNMKELNKVKHEMDFDAEWLFENHDEKDSRVNASKTADKKLNLGKEDDSSSDSFENLEEESNESGSPFDPVFEVEPKISNDNPEEHVLKVIPEDASESEEKLDQKEDGSKYETIHLTEEPTKLMHNASDSEVDQDDVVEWKDGASPSESGPGSQQVSDFEDNTCEMKPGTWSDESSQSEDARSSKPAAKKKATMQGDREQLKWKNSSYGKVEGFWSKDQSQWKNASENDERLSNPQIEWQNSTIDSEDGEQFDNMTDGVAEPMHGSLAGVKLSSQQA
Take B4: the binding entry is “binds”.

B5: NKTR (protein, UniProt P30414 1-1462)
chain: MGAQDRPQCHFDIEINREPVGRIMFQLFSDICPKTCKNFLCLCSGEKGLGKTTGKKLCYKGSTFHRVVKNFMIQGGDFSEGNGKGGESIYGGYFKDENFILKHDRAFLLSMANRGKHTNGSQFFITTKPAPHLDGVHVVFGLVISGFEVIEQIENLKTDAASRPYADVRVIDCGVLATKSIKDVFEKKRKKPTHSEGSDSSSNSSSSSESSSESELEHERSRRRKHKRRPKVKRSKKRRKEASSSEEPRNKHAMNPKGHSERSDTNEKRSVDSSAKREKPVVRPEEIPPVPENRFLLRRDMPVVTAEPEPKIPDVAPIVSDQKPSVSKSGRKIKGRGTIRYHTPPRSRSCSESDDDDSSETPPHWKEEMQRLRAYRPPSGEKWSKGDKLSDPCSSRWDERSLSQRSRSWSYNGYYSDLSTARHSGHHKKRRKEKKVKHKKKGKKQKHCRRHKQTKKRRILIPSDIESSKSSTRRMKSSCDRERSSRSSSLSSHHSSKRDWSKSDKDVQSSLTHSSRDSYRSKSHSQSYSRGSSRSRTASKSSSHSRSRSKSRSSSKSGHRKRASKSPRKTASQLSENKPVKTEPLRATMAQNENVVVQPVVAENIPVIPLSDSPPPSRWKPGQKPWKPSYERIQEMKAKTTHLLPIQSTYSLANIKETGSSSSYHKREKNSESDQSTYSKYSDRSSESSPRSRSRSSRSRSYSRSYTRSRSLASSHSRSRSPSSRSHSRNKYSDHSQCSRSSSYTSISSDDGRRAKRRLRSSGKKNSVSHKKHSSSSEKTLHSKYVKGRDRSSCVRKYSESRSSLDYSSDSEQSSVQATQSAQEKEKQGQMERTHNKQEKNRGEEKSKSERECPHSKKRTLKENLSDHLRNGSKPKRKNYAGSKWDSESNSERDVTKNSKNDSHPSSDKEEGEATSDSESEVSEIHIKVKPTTKSSTNTSLPDDNGAWKSSKQRTSTSDSEGSCSNSENNRGKPQKHKHGSKENLKREHTKKVKEKLKGKKDKKHKAPKRKQAFHWQPPLEFGEEEEEEIDDKQVTQESKEKKVSENNETIKDNILKTEKSSEEDLSGKHDTVTVSSDLDQFTKDDSKLSISPTALNTEENVACLQNIQHVEESVPNGVEDVLQTDDNMEICTPDRSSPAKVEETSPLGNARLDTPDINIVLKQDMATEHPQAEVVKQESSMSESKVLGEVGKQDSSSASLASAGESTGKKEVAEKSQINLIDKKWKPLQGVGNLAAPNAATSSAVEVKVLTTVPEMKPQGLRIEIKSKNKVRPGSLFDEVRKTARLNRRPRNQESSSDEQTPSRDDDSQSRSPSRSRSKSETKSRHRTRSVSYSHSRSRSRSSTSSYRSRSYSRSRSRGWYSRGRTRSRSSSYRSYKSHRTSSRSRSRSSSYDPHSRSRSYTYDSYYSRSRSRSRSQRSDSYHRGRSYNRRSRSCRSYGSDSESDRSYSHHRSPSESSRYS
B5: the binding entry is on record as “binds”.

B6: NOL7 (protein, UniProt Q9UMY1 1-257)
chain: MVQLRPRASRAPASAEAMVDEGQLASEEEEAEHGLLLGQPSSGAAAEPLEEDEEGDDEFDDEAPEELTFASAQAEAREEERRVRETVRRDKTLLKEKRKRREELFIEQKKRKLLPDTILEKLTTASQTNIKKSPGKVKEVNLQKKNEDCEKGNDSKKVKVQKVQSVSQNKSYLAVRLKDQDLRDSRQQAAQAFIHNSLYGPGTNRTTVNKFLSLANKRLPVKRAAVQFLNNAWGIQKKQNAKRFKRRWMVRKMKTKK
In the case of B6, the binding entry is reported as “binds”.

B7: LPCAT3 (protein, UniProt Q6P1A2 1-487)
chain: MASSAEGDEGTVVALAGVLQSGFQELSLNKLATSLGASEQALRLIISIFLGYPFALFYRHYLFYKETYLIHLFHTFTGLSIAYFNFGNQLYHSLLCIVLQFLILRLMGRTITAVLTTFCFQMAYLLAGYYYTATGNYDIKWTMPHCVLTLKLIGLAVDYFDGGKDQNSLSSEQQKYAIRGVPSLLEVAGFSYFYGAFLVGPQFSMNHYMKLVQGELIDIPGKIPNSIIPALKRLSLGLFYLVGYTLLSPHITEDYLLTEDYDNHPFWFRCMYMLIWGKFVLYKYVTCWLVTEGVCILTGLGFNGFEEKGKAKWDACANMKVWLFETNPRFTGTIASFNINTNAWVARYIFKRLKFLGNKELSQGLSLLFLALWHGLHSGYLVCFQMEFLIVIVERQAARLIQESPTLSKLAAITVLQPFYYLVQQTIHWLFMGYSMTAFCLFTWDKWLKVYKSIYFLGHIFFLSLLFILPYIHKAMVPRKEKLKKME
Consider B7, for which the binding entry is “binds”.
